# Assay results: patent publication US20090275497A1, “METHOD FOR IDENTIFYING MODULATORS OF THE ACTIVITY OF ION-CHANNELS RECEPTORS” (CENTRE NATIONAL DE LA RECHERCHE SCIENTIFIQUE (CNRS), priority 2004, published 2009)
# Test system: P2X2 to GABA receptors
# Conditions: electrophysiological techniques; ratio of P2X2 to GABA receptors 1:1
smiles,measurement,value
"NCCCC(=O)O [GABA, gamma-Aminobutyric acid]",current inhibition by GABA of the response mediated by ATP,≤ 50%
